Test results published in patent US20140057284A1, “PHOTOLUMINESCENT MOLECULAR COMPLEX AND METHOD FOR DETERMINING OF THE CONCENTRATION OF SAID MOLECULAR COMPLEX” (priority 2011, published 2014).

Test system: PK
Assay: Time-resolved luminescence of probes bound to protein kinases
Type: binding

CN(C)c1ccc2c(c1)Oc1cc(N(C)C)ccc1C21OC(=O)c2cc(C(=O)NCCCC[C@@H](NC(=O)[C@@H](CCCNC(=N)N)NC(=O)[C@@H](CCCNC(=N)N)NC(=O)[C@@H](CCCNC(=N)N)NC(=O)[C@@H](CCCNC(=N)N)NC(=O)[C@@H](CCCNC(=N)N)NC(=O)[C@@H](CCCNC(=N)N)NC(=O)CCCCCNC(=O)[C@@H](CCCNC(=N)N)NC(=O)CCCCCNC(=O)c3ccc(-c4ccnc(N)n4)s3)C(N)=O)ccc21 [ARC-669]
luminescence lifetime of the signal (bound to PK, dependent on the PK): 50-300 microseconds | increase of the luminescence signal on binding to a PK (ex 337 (50) nm, 50 microsecond delay, 100 microsecond window, em 590 (40) nm): 50-2500 fold
